B1: transmembrane p24 trafficking protein 4 (TMED4) (protein, UniProt Q8R1V4 30-227)
chain: LYFHIGETEKRCFIEEIPDETMVIGNYRTQMWDKQKEVFLPSTPGLGMHVEVKDPDGKVVLSRQYGSEGRFTFTSHTPGDHQICLHSNSTRMALFAGGKLRVHLDIQVGEHANNYPEIAAKDKLTELQLRARQLLDQVEQIQKEQDYQRYREERFRLTSESTNQRVLWWSIAQTVILILTGIWQMRHLKSFFEAKKLV
B2: oligosaccharyltransferase complex noncatalytic subunit (OSTC) (protein, UniProt Q78XF5 1-149)
chain: METLYRVPFLVLECPNLKLKKPPWVHMPSAMTVYALVVVSYFLITGGIIYDVIVEPPSVGSMTDEHGHQRPVAFLAYRVNGQYIMEGLASSFLFTMGGLGFIILDRSNAPNIPKLNRFLLLFIGFVCVLLSFFMARVFMRMKLPGYLMG
B3: defender against cell death 1 (DAD1) (protein, UniProt P61804 1-113)
chain: MSASVVSVISRFLEEYLSSTPQRLKLLDAYLLYILLTGALQFGYCLLVGTFPFNSFLSGFISCVGSFILAVCLRIQINPQNKADFQGISPERAFADFLFASTILHLVVMNFVG
B4: transmembrane p24 trafficking protein 10 (TMED10) (protein, UniProt Q9D1D4 32-219)
chain: ISFHLPVNSRKCLREEIHKDLLVTGAYEITDQSGGAGGLRTHLKITDSAGHILYAKEDATKGKFAFTTEDYDMFEVCFESKGTGRIPDQLVILDMKHGVEAKNYEEIAKVEKLKPLEVELRRLEDLSESIVNDFAYMKKREEEMRDTNESTNTRVLYFSIFSMFCLIGLATWQVFYLRRFFKAKKLIE
B5: signal peptide peptidase like 2C (SPPL2C) (protein, UniProt A2A6C4 29-690)
chain: EYGLVRVVSKNWSKDYCVLYSSDYVNLPRDLHHAPLLSLHDGTKTPWCPDEDSFHQAQDSSPRQRPLHQTTTMVTRGNCSFYAKGWLAQDQGAQGLLIVSRARNQQCSDTISKPQDPSKPWPALTIPVAVLRYTDMLDIVSHTYGDTDVRVAMFAPLEPVTDYNMAIIFILAVGTVAAGGYWAGLMEANKLQRRQAQRGGGLGGHNQQQTVAAERSQRAWEDDDFEDAPMDFTPAMTGAVVTMSCSIMILLYFFYDCFVYVMIGIFSLGASTGLYSCLAPILCHLPLWRYQWVLPGQRVSVTWPLLLLAGLCAMVTVLWVIHRNEDHWAWLLQDTLGVAYCLFVLRRVRLPTFKNCTLFLLALLAFDVFFVFITPLFTKTGESIMVEVASGPADSSSHERLPMVLKVPRLSFSALTLCNQPFSILGFGDIVVPGFLVAYCHRFDMQVQSRQVYYMACTVAYAVGLLVTFVAMILMQMGQPALLYLVSSTLLTSLAVATCRQEFTLFWTGQGRAKIPAEPVAQPCIASAVGSKMKLEDAKDSRTTNRFEQAVDGESGDLESSTGDDMAEMVTLSEDEATSPEGHSESSEGWSDTNLDPNELPSGSPMALEAMLIPLIQPIPHPSELGHIRTQSRVHDSSLPWMGLHKRKGLKVKKSMSAQAPL

Chains of the proteins cited; added tags and fusions are not shown. Residues count along the entry.
UniProt P24369, residues 34-216: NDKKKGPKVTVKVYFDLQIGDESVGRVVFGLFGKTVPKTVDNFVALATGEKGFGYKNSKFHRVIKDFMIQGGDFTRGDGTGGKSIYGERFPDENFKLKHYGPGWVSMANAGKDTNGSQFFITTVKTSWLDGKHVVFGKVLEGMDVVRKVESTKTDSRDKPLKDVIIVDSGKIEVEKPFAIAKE
UniProt Q9DBG6, residues 23-631: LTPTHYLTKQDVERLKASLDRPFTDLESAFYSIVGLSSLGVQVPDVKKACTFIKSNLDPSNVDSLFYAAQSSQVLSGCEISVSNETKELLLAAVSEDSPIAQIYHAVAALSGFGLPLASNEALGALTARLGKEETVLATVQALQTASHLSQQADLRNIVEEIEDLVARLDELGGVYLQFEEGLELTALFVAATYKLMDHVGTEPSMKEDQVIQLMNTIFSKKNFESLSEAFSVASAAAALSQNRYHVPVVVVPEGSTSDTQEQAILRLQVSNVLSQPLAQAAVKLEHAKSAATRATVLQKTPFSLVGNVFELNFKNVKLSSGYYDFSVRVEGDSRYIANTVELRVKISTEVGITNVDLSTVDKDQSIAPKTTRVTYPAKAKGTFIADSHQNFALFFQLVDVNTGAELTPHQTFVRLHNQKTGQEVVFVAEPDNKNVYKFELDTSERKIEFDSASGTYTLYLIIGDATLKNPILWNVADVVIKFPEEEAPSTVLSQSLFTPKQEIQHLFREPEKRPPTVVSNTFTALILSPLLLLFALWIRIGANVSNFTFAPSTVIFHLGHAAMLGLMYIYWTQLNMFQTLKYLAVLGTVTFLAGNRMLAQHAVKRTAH
UniProt P27773, residues 25-505: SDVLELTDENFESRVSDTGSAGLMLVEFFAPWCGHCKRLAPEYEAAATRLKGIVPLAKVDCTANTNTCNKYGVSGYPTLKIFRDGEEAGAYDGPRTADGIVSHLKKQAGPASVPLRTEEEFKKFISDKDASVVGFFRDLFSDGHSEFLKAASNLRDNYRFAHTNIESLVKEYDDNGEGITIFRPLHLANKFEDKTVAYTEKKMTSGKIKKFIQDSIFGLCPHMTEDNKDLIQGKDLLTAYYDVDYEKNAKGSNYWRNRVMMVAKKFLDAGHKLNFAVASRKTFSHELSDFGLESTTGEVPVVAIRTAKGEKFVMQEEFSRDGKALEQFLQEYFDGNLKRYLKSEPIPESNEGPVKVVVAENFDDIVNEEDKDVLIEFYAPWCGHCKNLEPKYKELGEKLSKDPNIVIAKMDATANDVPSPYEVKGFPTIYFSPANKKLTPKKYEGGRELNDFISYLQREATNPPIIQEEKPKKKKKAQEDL

These are yes or no findings as the source states them, for the method shown. In cells and extracts the contact can be indirect. A yes stands for co-enrichment or nearness to the bait. Other partners may have been found.

The first experiment has as its target T1, 1700029I15Rik (mouse (endogenous in testis)) (UniProt Q8CF31).
T1 sequence: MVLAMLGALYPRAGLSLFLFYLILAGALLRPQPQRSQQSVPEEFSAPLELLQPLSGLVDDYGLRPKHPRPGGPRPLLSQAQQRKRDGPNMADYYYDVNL
Description: affinity purification with mass spectrometry; co-IP/MS from wild-type and knockout mouse testis lysates with antibody-crosslinked agarose resin; three biological replicates; hits specific to wild type in at least two replicates.
For “peptidyl-prolyl cis–trans isomerase B (PPIB) (from UniProt P24369 34-216)”, the binding result is given as “binds”.
Same read-out and setting: in the case of “ribophorin II (RPN2) (from UniProt Q9DBG6 23-631)” it was “binds”.
Take “protein disulfide isomerase family A member 3 (PDIA3) (from UniProt P27773 25-505)”: the binding result is reported as “binds”.
Still for that read-out and setting: to B1 belongs “binds”; to B2, “binds”; to B3, “binds”.
Same read-out and setting: to B4 belongs “binds”.

The next experiment concerns the target T1, 1700029I15Rik (mouse (endogenous in testis)). Description: affinity purification with mass spectrometry; co-IP/MS from mouse testes with non-crosslinked magnetic beads; interactions scored by the specificity of detected spectra.
Turning to “protein disulfide isomerase family A member 3 (PDIA3) (from UniProt P27773 25-505)”, the binding entry is recorded as “binds”.
For B5, the binding entry is “binds”.

(Values after publication PMC9974436.)
